PMC5514136

What was measured:
TRIB2 = target: T1, TRIB2 (UniProt Q92519); assay: pull-down; TRIB1, TRIB2 and TRIB3 as baits, binding corrected for the amount of bait (Suppl Fig. 6); source of HNF4A not told; only the target purified
T1 sequence: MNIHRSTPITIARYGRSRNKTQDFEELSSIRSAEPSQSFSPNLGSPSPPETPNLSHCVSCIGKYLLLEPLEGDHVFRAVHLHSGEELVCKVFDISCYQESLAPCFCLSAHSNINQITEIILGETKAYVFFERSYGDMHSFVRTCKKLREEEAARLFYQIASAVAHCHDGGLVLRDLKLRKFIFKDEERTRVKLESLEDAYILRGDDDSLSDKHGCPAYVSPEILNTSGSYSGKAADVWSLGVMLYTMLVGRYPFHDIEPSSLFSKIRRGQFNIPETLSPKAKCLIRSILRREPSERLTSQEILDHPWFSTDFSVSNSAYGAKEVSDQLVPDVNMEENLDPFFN

GST-TRIB1 (human) [1] = assay: pull-down; GST-TRIB1 on GST agarose beads; HuH-7 or HepG2 lysates in IP buffer; endogenous HNF4A by Western blot; only the target purified
[2] = target: TRIB1 fragment spanning AA1–97 (human); assay: pull-down; GST fusion on beads; HepG2 nuclear lysates (Suppl Fig. 7); only the target purified
GST-TRIB1 (human) [3] = assay: pull-down; competition: synthetic peptide added with the prey lysate to GST-TRIB1 on beads; read-out is the co-isolated CEBPA; both purified

Molecule: HNF4A, P2 form (HNF4α7) (human)
- binding (TRIB2): binds

B1: endogenous HNF4A (protein, UniProt P41235 1-474)
chain: MRLSKTLVDMDMADYSAALDPAYTTLEFENVQVLTMGNDTSPSEGTNLNAPNSLGVSALCAICGDRATGKHYGASSCDGCKGFFRRSVRKNHMYSCRFSRQCVVDKDKRNQCRYCRLKKCFRAGMKKEAVQNERDRISTRRSSYEDSSLPSINALLQAEVLSRQITSPVSGINGDIRAKKIASIADVCESMKEQLLVLVEWAKYIPAFCELPLDDQVALLRAHAGEHLLLGATKRSMVFKDVLLLGNDYIVPRHCPELAEMSRVSIRILDELVLPFQELQIDDNEYAYLKAIIFFDPDAKGLSDPGKIKRLRSQVQVSLEDYINDRQYDSRGRFGELLLLLPTLQSITWQMIEQIQFIKLFGMAKIDNLLQEMLLGGSPSDAPHAHHPLHPHLMQEHMGTNVIVANTMPTHLSNGQMCEWPRPRGQAATPETPQPSPPGGSGSEPYKLLPGAVATIVKPLSAIPQPTITKQEVI
- binding (GST-TRIB1 (human) [1]): binds
- binding [2]: binds

Molecule: SEICEDENSIDISAYIDPAAFND (biotin on the N-terminus) [CEBPA derived peptide]
- binding (GST-TRIB1 (human) [3]): binds

These are yes or no findings as the source states them, for the method shown. In cells and extracts the contact can be indirect. Binding calls can cover weak binding; strength is not graded here.
